Reference: the supplement of paper PMC10849652
This is one part of the list.

Chains of the proteins cited; added tags and fusions are not shown. Lines headed by an entry give the natural chain unless they say otherwise; changes in a name come on top.
UniProt Q15906, whole entry, looked up: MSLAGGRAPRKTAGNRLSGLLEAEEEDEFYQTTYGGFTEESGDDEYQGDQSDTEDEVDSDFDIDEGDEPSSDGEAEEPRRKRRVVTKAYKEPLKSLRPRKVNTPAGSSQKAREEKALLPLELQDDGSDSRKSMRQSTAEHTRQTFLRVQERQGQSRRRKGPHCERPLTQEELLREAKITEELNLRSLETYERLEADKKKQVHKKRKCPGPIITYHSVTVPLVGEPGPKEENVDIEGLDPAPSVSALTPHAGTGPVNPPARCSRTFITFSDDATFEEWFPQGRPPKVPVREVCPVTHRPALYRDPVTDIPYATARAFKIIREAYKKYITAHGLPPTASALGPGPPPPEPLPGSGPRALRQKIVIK
UniProt Q9BZH6: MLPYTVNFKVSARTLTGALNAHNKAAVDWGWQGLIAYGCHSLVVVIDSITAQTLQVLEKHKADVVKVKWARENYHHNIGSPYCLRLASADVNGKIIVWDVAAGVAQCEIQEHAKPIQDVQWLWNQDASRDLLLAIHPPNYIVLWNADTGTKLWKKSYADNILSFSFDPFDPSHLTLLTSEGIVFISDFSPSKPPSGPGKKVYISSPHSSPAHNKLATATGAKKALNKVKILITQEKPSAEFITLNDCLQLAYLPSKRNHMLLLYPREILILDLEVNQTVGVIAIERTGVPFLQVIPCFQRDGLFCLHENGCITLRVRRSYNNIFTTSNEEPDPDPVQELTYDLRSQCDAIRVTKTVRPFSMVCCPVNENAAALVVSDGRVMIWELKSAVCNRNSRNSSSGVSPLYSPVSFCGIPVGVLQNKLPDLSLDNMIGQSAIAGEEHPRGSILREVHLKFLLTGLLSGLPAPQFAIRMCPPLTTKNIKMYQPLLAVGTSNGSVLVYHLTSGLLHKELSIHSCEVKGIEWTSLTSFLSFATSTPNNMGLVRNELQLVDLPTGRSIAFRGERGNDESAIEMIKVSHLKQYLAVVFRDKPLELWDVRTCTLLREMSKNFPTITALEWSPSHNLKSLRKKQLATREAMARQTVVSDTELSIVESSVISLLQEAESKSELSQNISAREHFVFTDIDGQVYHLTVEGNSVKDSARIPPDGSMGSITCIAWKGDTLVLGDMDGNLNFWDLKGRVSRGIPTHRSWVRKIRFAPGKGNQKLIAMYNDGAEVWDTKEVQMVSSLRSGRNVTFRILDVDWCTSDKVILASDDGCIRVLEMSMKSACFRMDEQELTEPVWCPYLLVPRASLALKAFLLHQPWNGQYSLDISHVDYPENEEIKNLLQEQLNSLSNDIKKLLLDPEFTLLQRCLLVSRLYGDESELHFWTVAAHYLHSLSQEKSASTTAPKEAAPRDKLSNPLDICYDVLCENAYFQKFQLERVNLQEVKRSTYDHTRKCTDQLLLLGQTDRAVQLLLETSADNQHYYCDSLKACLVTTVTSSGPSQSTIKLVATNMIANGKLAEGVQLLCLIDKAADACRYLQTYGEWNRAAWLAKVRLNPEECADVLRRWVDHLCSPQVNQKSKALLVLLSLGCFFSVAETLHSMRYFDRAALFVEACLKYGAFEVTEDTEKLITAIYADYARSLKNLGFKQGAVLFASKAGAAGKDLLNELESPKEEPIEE
UniProt Q96AX1: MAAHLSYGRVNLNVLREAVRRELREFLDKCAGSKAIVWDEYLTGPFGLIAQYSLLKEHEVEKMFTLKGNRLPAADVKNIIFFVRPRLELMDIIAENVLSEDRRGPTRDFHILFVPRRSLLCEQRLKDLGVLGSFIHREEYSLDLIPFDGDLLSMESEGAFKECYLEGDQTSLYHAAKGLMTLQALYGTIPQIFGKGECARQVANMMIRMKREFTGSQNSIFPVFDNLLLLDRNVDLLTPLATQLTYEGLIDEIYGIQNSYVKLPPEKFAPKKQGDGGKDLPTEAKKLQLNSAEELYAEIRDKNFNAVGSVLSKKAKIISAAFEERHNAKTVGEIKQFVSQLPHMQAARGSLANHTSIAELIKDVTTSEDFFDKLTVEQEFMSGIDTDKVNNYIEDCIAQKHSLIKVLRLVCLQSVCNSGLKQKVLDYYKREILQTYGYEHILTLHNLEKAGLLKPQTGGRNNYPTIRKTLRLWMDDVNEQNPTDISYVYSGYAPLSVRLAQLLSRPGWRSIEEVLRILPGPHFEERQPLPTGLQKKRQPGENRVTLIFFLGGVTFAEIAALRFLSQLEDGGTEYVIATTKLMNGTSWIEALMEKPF
UniProt Q5VIR6: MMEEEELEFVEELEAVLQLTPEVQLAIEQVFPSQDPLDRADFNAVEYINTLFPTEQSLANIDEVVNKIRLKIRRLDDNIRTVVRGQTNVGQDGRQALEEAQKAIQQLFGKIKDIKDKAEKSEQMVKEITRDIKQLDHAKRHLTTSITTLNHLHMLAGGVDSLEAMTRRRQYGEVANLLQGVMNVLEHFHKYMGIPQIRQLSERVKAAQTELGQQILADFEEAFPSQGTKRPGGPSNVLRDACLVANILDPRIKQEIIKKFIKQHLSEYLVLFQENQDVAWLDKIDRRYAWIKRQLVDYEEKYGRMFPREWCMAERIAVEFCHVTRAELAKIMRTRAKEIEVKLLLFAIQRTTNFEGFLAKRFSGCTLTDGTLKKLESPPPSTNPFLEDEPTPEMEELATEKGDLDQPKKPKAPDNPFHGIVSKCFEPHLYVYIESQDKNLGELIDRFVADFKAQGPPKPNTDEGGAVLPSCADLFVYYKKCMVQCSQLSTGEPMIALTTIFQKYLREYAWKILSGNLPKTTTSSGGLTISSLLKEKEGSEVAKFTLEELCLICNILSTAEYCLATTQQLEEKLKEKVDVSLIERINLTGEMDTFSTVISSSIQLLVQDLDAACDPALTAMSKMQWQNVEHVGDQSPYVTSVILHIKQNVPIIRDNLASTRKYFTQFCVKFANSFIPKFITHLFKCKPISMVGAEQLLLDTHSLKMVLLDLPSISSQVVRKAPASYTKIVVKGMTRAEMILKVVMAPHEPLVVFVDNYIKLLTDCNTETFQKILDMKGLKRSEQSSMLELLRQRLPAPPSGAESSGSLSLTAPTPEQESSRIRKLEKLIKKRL
UniProt Q9BQA1, whole entry, looked up: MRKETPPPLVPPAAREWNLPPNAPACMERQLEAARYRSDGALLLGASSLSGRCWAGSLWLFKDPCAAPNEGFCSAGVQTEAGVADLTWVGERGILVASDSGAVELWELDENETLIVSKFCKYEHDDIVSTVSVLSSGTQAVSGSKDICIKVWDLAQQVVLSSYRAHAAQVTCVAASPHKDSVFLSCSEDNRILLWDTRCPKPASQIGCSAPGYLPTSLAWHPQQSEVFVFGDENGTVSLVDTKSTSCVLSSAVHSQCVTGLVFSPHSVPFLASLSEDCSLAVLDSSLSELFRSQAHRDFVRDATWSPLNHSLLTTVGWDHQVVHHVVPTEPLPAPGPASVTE
UniProt Q502W6: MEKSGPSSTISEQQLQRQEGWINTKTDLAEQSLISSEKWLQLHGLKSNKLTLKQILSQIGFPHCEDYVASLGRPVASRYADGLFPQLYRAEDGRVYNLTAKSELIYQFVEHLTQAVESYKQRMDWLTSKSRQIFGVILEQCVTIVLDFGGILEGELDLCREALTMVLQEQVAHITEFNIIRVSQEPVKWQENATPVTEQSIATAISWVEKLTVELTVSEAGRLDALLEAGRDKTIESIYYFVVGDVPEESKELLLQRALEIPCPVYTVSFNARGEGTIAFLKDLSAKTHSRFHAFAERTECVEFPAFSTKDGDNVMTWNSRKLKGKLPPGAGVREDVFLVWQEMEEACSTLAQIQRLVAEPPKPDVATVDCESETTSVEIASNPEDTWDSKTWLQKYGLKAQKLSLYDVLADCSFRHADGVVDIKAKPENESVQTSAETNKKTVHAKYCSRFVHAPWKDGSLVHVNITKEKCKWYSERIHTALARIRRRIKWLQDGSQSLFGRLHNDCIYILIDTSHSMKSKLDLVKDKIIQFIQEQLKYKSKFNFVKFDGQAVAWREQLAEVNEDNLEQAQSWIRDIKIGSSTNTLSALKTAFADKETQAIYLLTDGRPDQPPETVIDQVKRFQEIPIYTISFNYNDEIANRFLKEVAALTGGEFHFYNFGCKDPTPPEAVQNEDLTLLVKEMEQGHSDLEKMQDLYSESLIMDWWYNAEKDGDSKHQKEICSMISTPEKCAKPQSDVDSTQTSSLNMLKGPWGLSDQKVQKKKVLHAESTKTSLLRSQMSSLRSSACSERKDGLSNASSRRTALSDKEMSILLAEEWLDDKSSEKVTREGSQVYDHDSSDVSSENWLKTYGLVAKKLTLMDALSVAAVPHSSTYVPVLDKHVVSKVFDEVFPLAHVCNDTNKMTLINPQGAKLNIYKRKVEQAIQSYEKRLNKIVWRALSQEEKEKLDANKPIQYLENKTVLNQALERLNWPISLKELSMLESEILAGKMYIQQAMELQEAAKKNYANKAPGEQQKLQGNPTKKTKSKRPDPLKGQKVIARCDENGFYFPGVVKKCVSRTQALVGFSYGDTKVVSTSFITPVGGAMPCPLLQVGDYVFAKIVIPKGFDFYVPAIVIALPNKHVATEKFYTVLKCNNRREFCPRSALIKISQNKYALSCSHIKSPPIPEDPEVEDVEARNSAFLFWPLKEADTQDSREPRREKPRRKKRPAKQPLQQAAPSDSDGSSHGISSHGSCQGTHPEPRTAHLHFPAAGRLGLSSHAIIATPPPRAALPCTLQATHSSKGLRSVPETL
UniProt Q6PJI9: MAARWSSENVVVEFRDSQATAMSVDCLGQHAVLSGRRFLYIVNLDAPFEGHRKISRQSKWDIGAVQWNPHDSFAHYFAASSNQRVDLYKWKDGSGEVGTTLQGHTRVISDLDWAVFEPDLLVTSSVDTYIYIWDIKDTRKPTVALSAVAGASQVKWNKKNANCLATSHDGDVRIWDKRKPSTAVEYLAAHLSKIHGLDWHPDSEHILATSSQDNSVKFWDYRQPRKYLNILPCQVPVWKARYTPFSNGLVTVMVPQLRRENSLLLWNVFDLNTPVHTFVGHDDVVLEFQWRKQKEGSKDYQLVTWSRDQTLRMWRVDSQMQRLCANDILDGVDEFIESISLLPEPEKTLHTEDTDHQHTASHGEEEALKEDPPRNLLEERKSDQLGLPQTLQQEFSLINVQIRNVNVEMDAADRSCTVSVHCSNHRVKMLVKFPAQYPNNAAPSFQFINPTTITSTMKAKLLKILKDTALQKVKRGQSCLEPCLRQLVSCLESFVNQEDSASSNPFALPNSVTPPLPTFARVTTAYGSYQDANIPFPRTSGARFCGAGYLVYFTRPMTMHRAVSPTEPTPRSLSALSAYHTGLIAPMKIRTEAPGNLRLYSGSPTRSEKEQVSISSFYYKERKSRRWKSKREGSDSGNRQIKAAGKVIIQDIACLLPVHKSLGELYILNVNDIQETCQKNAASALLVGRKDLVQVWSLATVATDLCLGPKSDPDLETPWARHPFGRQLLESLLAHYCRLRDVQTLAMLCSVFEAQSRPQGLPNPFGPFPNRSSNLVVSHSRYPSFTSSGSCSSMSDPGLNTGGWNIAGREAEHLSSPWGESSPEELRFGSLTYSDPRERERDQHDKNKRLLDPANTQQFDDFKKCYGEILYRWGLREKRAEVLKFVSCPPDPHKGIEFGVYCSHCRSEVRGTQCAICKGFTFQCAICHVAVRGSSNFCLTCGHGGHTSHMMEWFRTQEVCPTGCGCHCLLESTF

What was measured:
Experiment in all cases: log2 fold change, soluble protein after heating vs DMSO (PISA); higher = thermal stabilisation; K562 cells, 10 uM, 30 min; active = over 0.2 and 3.5 SD of the protein, either way, in both replicates (recomputed)
[1] = compound: C1=CC=C(C=C1)[C@H](COC2=CC3=C(C=C2)NC(=O)N3)NC(=O)C4=CC=CN(C4=O)CC5=CC(=C(C=C5)F)F
Outline: (§1)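 K562 cells at 2×10^6 cells/mL were given 10 μM compound for 30 min. Aliquots then went through 3 min of heating across 48°C-58°C, were pooled, and were extracted in PBS with 0.5% NP-40 at 4°C, and the supernatant after 21,000xg for 90 min was quantified by TMTpro 16plex LC-MS/MS with channel sums equalised. Thermal stability relative to control samples, from duplicates, is given as log2 fold change.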

[2] = compound: CC1=C(SC2=C1C(=N[C@H](C3=NN=C(N32)C)CC(=O)N)C4=CC=C(C=C4)Cl)C
Outline: as §1

[3] = compound: CC1=C2C(=CC=C1)N=C(N(C2=O)C3=CC=CC=C3C)CN4C=NC5=C(N=CN=C54)N
Outline: as §1

[4] = compound: Cc1sc2c(c1C)C(c1ccc(Cl)cc1)=N[C@@H](CC(=O)OC(C)(C)C)c1nnc(C)n1-2
Outline: as §1

[5] = compound: c1ccc([C@@H]2C[C@H]2NC2CCNCC2)cc1
Outline: as §1

Measured: log2 fold change

WDR55 (UniProt Q9H6Y2)
inactive: [1] 0.003 | [2] -0.015 | [3] 0.022 | [4] 0.018 | [5] 0.051

VTI1B (UniProt Q9UEU0)
inactive: [1] 0.015 | [2] -0.002 | [3] 0.045 | [4] -0.032 | [5] 0.02

WDR7 (UniProt Q9Y4E6)
inactive: [1] -0.037 | [2] 0.013 | [3] -0.068 | [4] -0.131 | [5] -0.093

VTA1 (UniProt Q9NP79)
inactive: [1] 0.007 | [2] 0.062 | [3] 0.104 | [4] -0.075 | [5] -0.025

VPS16 (UniProt Q9H269)
inactive: [1] -0.188 | [2] 0.048 | [3] 0.106 | [4] -0.021 | [5] -0.038

WDR6 (UniProt Q9NNW5)
inactive: [1] -0.024 | [2] 0 | [3] 0.038 | [4] 0.006 | [5] -0.035

VPS28 (UniProt Q9UK41)
inactive: [1] -0.075 | [2] 0.023 | [3] 0.064 | [4] 0.011 | [5] -0.01

VPS72 isoform 2 (UniProt Q15906)
inactive: [1] 0.123 | [2] -0.106 | [3] 0.055 | [4] 0.05 | [5] -0.013

WDR11 (UniProt Q9BZH6)
inactive: [1] -0.076 | [2] 0.067 | [3] 0.111 | [4] 0.05 | [5] 0.023

VPS33A (UniProt Q96AX1)
inactive: [1] -0.039 | [2] 0.053 | [3] 0.147 | [4] 0.059 | [5] -0.041

WDR33 (UniProt Q9C0J8)
inactive: [1] 0.083 | [2] -0.101 | [3] 0.167 | [4] 0.097 | [5] -0.036

VDAC2 (UniProt P45880)
inactive: [1] 0.031 | [2] 0.042 | [3] 0.039 | [4] -0.012 | [5] 0.021

VPS35L (UniProt Q7Z3J2)
inactive: [1] -0.046 | [2] -0.13 | [3] 0.011 | [4] -0.024 | [5] 0

VPS13D (UniProt Q5THJ4)
inactive: [1] 0.089 | [2] -0.019 | [3] -0.079 | [4] -0.021 | [5] -0.064

WDR45 (UniProt Q9Y484)
inactive: [1] -0.029 | [2] 0.066 | [3] -0.008 | [4] -0.051 | [5] 0.035

WDR89 (UniProt Q96FK6)
inactive: [1] 0.019 | [2] 0.093 | [3] -0.023 | [4] 0.002 | [5] 0.012

VPS53 isoform 4 (UniProt Q5VIR6)
inactive: [1] -0.009 | [2] 0.02 | [3] 0.049 | [4] -0.006 | [5] -0.007

WDR1 (UniProt O75083)
inactive: [1] -0.006 | [2] 0.063 | [3] 0.067 | [4] -0.015 | [5] -0.047

Five neighbouring entries from above, quoted:
VDAC2 (UniProt P45880)
inactive: [1] 0.031 | [2] 0.042 | [3] 0.039 | [4] -0.012 | [5] 0.021

VPS35L (UniProt Q7Z3J2)
inactive: [1] -0.046 | [2] -0.13 | [3] 0.011 | [4] -0.024 | [5] 0

VPS13D (UniProt Q5THJ4)
inactive: [1] 0.089 | [2] -0.019 | [3] -0.079 | [4] -0.021 | [5] -0.064

WDR45 (UniProt Q9Y484)
inactive: [1] -0.029 | [2] 0.066 | [3] -0.008 | [4] -0.051 | [5] 0.035

WDR89 (UniProt Q96FK6)
inactive: [1] 0.019 | [2] 0.093 | [3] -0.023 | [4] 0.002 | [5] 0.012

Additional entries follow.

WDR70 (UniProt Q9NW82)
inactive: [1] -0.016 | [2] 0.052 | [3] 0.034 | [4] -0.016 | [5] 0.012

WASHC2C, A0A096LPC5
inactive: [1] 0.015 | [2] 0.012 | [3] 0.008 | [4] 0.027 | [5] 0.001

WDR4 (UniProt P57081)
inactive: [1] -0.074 | [2] 0.048 | [3] -0.004 | [4] -0.025 | [5] -0.008

WDR77 (UniProt Q9BQA1)
inactive: [1] -0.017 | [2] 0.009 | [3] 0.055 | [4] -0.008 | [5] -0.026

VWA3B isoform 6 (UniProt Q502W6)
inactive: [1] -0.161 | [2] 0.069 | [3] 0.162 | [4] 0.129 | [5] 0.064

WDR59 (UniProt Q6PJI9)
inactive: [1] 0.047 | [2] 0.006 | [3] 0.087 | [4] 0.003 | [5] 0.127
